Patent publication US20200306340A1 (ACCELERON PHARMA, published 2020)
No constants are given. Whether binding was seen depends on the method and setting. Some entries that bind do so weakly or less than the wild type. Tags and fused reporters may be left off the sequences shown.

Tests used:
[1] = target: T1, GDF11 (UniProt O95390 299-407); test: Biacore SPR
T1 sequence (looked up): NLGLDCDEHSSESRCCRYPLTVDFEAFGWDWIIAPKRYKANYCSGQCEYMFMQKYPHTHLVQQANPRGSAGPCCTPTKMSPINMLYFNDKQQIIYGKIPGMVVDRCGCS

[2] = target: T2, GDF8 (UniProt O14793 267-375); test: Biacore SPR
T2 construct: also called myostatin
T2 sequence (looked up): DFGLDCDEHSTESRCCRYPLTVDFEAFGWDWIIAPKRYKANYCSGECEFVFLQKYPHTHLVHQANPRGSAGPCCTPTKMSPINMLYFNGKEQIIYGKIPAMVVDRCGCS

[3] = target: T3, BMP6 (UniProt P22004 382-513, limits assumed); test: Biacore SPR
T3 sequence (looked up): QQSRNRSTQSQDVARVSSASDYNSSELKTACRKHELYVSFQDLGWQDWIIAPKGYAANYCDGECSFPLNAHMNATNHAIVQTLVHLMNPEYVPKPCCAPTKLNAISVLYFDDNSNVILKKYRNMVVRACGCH

[4] = target: T4, BMP9 (UniProt Q9UK05 320-429); test: Biacore SPR
T4 construct: also called GDF2
T4 sequence (looked up): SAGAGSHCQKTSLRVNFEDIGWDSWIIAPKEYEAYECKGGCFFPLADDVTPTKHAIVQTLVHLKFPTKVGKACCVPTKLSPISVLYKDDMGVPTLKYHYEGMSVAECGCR

[5] = target: T5, activin B (UniProt P09529 293-407); test: Biacore SPR (binding data referred to)
T5 sequence (looked up): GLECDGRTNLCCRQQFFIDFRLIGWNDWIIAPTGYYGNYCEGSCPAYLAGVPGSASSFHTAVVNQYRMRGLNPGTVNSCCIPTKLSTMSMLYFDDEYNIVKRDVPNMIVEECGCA

[6] = target: T1, GDF11; test: Biacore SPR (binding data referred to)
[7] = target: T2, GDF8; test: Biacore SPR (binding data referred to)
[8] = target: T1, GDF11; test: comparative ligand binding data, ligands ranked by koff (legend of FIG. 19)
[9] = target: T2, GDF8; test: as above
[10] = target: T3, BMP6; test: as above

binding [1]: binds | binding [2]: binds | binding [3]: binds | binding [4]: binds | binding [5]: binds | binding [6]: binds | binding [7]: binds | binding [8]: binds | binding [9]: binds | binding [10]: binds
B1: ActRIIB-Fc homodimer (Fc fusion, not shown: a dimerising Fc or GST)
chain: GRGEAETRECIYYNANWELERTNQSGLERCEGEQDKRLHCYASWRNSSGTIELVKKGCWLDDFNCYDRQECVATEENPQVYFCCCEGNFCNERFTHLPEAGGPEVTYEPPPTAPT
